Data as given in PubChem BioAssay AID743121 (NCATS, 2013)
Here is one part, drawn at random, of about 26,000 reagents tested. 167 of all reagents (0.63%) were called active. 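Calls are per gene from RSA p-values that are not deposited; an individual active-marked siRNA can sensitise only weakly.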 The numbers tell different reagents against one gene apart. Further read-outs or replicates are left out here.

Aim: 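Knock-downs that sensitise breast cancer cells to camptothecin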 (primary screen)
System: MDA-MB-231 cells, a human breast cancer line
Reagents: single siRNA against human genes, 20 nM siRNA (0.8 pmol per well)
Time to read-out: 120 h (drug added 48 h after transfection, read 72 h later)
Challenge: camptothecin 20 nM (about EC30) for 72 h; vehicle 0.1% DMSO in parallel plates
Measurement: 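Cell viability by ATP luminescence (CellTiter-Glo) as % of non-targeting siRNA wells, and the log2 ratio of viability without drug over viability with camptothecin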
Scale: log2 vehicle/camptothecin viability: higher = stronger sensitisation to camptothecin
Rule for the call: 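Each gene scored by redundant siRNA activity (RSA) over its individual siRNA ratios; a gene is called active at p < 0.001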

For HSD17B3 #1, how do the results read?
log2 vehicle/camptothecin viability: -0.0296; Call: inactive

With HSD17B3 #2, what does the deposit list?
log2 vehicle/camptothecin viability: -0.586; Call: inactive

What is on record for HSD17B3 #3?
log2 vehicle/camptothecin viability: 0.103; Call: inactive

What is on record for CHFR #1?
log2 vehicle/camptothecin viability: -0.256; Call: inactive

For CHFR #2, what was measured?
log2 vehicle/camptothecin viability: -0.556; Call: inactive

With CHFR #3, what does the deposit list?
log2 vehicle/camptothecin viability: -0.224; Call: inactive

With CHFR #4, how do the results read?
log2 vehicle/camptothecin viability: -0.505; Call: inactive

For SLC12A9 #1, what was measured?
log2 vehicle/camptothecin viability: -0.0899; Call: inactive

Which result is listed for SLC12A9 #2?
log2 vehicle/camptothecin viability: -0.296; Call: inactive

What did the screen give for SLC12A9 #3?
log2 vehicle/camptothecin viability: -0.412; Call: inactive

How did the screen score SLC12A9 #4?
log2 vehicle/camptothecin viability: -0.508; Call: inactive

How did the screen score MYORG #1?
log2 vehicle/camptothecin viability: 0.023; Call: inactive

How did the screen score MYORG #2?
log2 vehicle/camptothecin viability: -0.0128; Call: inactive

What did the screen give for MYORG #3?
log2 vehicle/camptothecin viability: 0.471; Call: inactive

What did the screen give for MYORG #4?
log2 vehicle/camptothecin viability: -0.0977; Call: inactive

Which result is listed for SERPINB10 #1?
log2 vehicle/camptothecin viability: -0.168; Call: inactive

With SERPINB10 #2, what does the deposit list?
log2 vehicle/camptothecin viability: 0.13; Call: inactive

For SERPINB10 #3, what does the deposit list?
log2 vehicle/camptothecin viability: -0.0335; Call: inactive

What did the screen give for SERPINB10 #4?
log2 vehicle/camptothecin viability: -0.0488; Call: inactive

For TOMM34 #1, how do the results read?
log2 vehicle/camptothecin viability: -0.275; Call: inactive

How did the screen score TOMM34 #2?
log2 vehicle/camptothecin viability: 0.21; Call: inactive

How did the screen score TOMM34 #3?
log2 vehicle/camptothecin viability: -0.187; Call: inactive

How did the screen score TOMM34 #4?
log2 vehicle/camptothecin viability: -0.578; Call: inactive

With YME1L1 #1, what does the deposit list?
log2 vehicle/camptothecin viability: -0.521; Call: inactive

Which result is listed for YME1L1 #2?
log2 vehicle/camptothecin viability: -0.429; Call: inactive

What is on record for YME1L1 #3?
log2 vehicle/camptothecin viability: -0.0187; Call: inactive

For YME1L1 #4, how do the results read?
log2 vehicle/camptothecin viability: -0.127; Call: inactive
